# Source: EP3335720A1, “C-DI-GMP BINDING PEPTIDES” (Universität Basel, priority 2016, dated 2018)
# Part of at least one peptide drawing is inferred or uncertain, most often the ends. Peptide text beside a SMILES is read from it. * marks the point of attachment. FITC = O=C1OC2(c3ccc(O)cc3Oc3cc(O)ccc32)c2ccc(NC(=S)*)cc21
# How the values were obtained:
# [1] = system: P. aeruginosa PAO1 cells; assay: Cell penetration, FACS based assay (flow cytometry of FITC-labeled peptides); conditions: 10 mg/L, 30 min, 37°C
# [2] = system: P. aeruginosa PAO1 biofilms; format: cell-based; conditions: concentration of 2 mg/L; Figure 9
# Procedure: The parameter "MBIC50", as used herein, is defined as the peptide concentration leading to 50% biofilm reduction in a standard biofilm assay. Preferably, the medium used for the assay is Mueller-Hinton broth (MHB), since most bacteria can be grown in this medium, and it allows a reliable comparison of MBIC values. MBIC50 values in accordance with the invention are obtained by growing P. aeruginosa at 37°C in presence of different concentrations of peptides, without agitation, for 24 h, followed by staining the adherent biofilm, dissolving the biofilm and measuring the OD600.
# The standard biofilm assay (O'Toole G.A., Pratt L.A., Watnick P.I., Newman D.K., Weaver V.B., and Kolter R. 1999. Genetic approaches to study of biofilms. Methods Enzymol. 310: 91-109) was followed with minor modification, i.e. Mueller-Hinton II broth (MHB) (Becton Dickinson #212322) was used instead of lysogenic broth (LB) or minimal medium. MHB is preferred by The European Committee on Antimicrobial Susceptibility Testing (EUCAST) as the medium for MIC determination because most bacteria can be grown in this medium, which allows a more reliable MIC values comparisons. […] After 24 hours, bacterial growth was evaluated by measuring the OD600 in a microtiter plate reader (EL800, BioTek). […] Dissolved biofilms were quantified by measuring the OD600 in a microtiter plate reader.
# [3] = system: P. aeruginosa (PAO1); assay: P. aeruginosa growth in presence of peptides (growth curves); format: cell-based; conditions: 64 mg/L peptides, 37°C, MHB; Figure 10
# Procedure: Growth curves were obtained by growing P. aeruginosa (PAO1) in 96-well plates (Falcon #353072) in presence of 64 mg/L peptides at 37°C with agitation in Mueller-Hinton II Broth (MHB) (BD #212322) using an Epoch 2 microplate reader (BioTek).
# [4] = system: P. aeruginosa PAO1; assay: Fluorescence microscopy, localization of FITC-labeled peptides; format: cell-based; conditions: 10 mg/L, 30 min, 37°C; Figure 7
# [5] = target: c-di-GMP; assay: Binding affinity of peptides to c-di-GMP by isothermal titration calorimetry (ITC); conditions: cell penetrating fusion peptides
# Procedure: Binding affinities of peptides to c-di-GMP were measured using isothermal titration calorimetry (ITC) on a VP-ITC MicroCalorimeter (MicroCal, Northampton, MA, USA). Peptides, c-di-GMP and buffer (50 mM Tris-HCl, pH 8.0, 100 mM NaCl) were degassed for 15 min prior to filling into sample cell and syringe. All experiments were carried out at a temperature of 15°C. The data were evaluated using ITC Data Analysis in ORIGIN provided by the manufacturer.
compound,measurement,setting,value
C[C@H](NC(=O)[C@H](CO)NC(=O)[C@H](CC(N)=O)NC(=O)[C@H](Cc1ccccc1)NC(=O)[C@H](CCCNC(=N)N)NC(=O)[C@H](CCCNC(=N)N)NC(=O)[C@H](CCCNC(=N)N)NC(=O)CNC(=O)[C@H](CCCNC(=N)N)NC(=O)[C@H](CCCNC(=N)N)NC(=O)[C@H](CCCNC(=N)N)NC(=O)[C@H](CCC(N)=O)NC(=O)[C@H](CCCNC(=N)N)NC(=O)[C@H](CCCNC(=N)N)NC(=O)[C@H](CCCCN)NC(=O)[C@H](CCCCN)NC(=O)[C@H](CCCNC(=N)N)NC(=O)CNC(=O)[C@H](Cc1ccc(O)cc1)NC(=S)Nc1ccc2c(c1)C(=O)OC21c2ccc(O)cc2Oc2cc(O)ccc21)C(=O)N[C@@H](CC(=O)O)C(=O)N[C@@H](Cc1ccc(O)cc1)C(=O)N[C@@H](CCCCN)C(=O)NCC(=O)N1CCC[C@H]1C(=O)N[C@@H](CCCNC(=N)N)C(=O)N[C@@H](CCCNC(=N)N)C(=O)N[C@@H](CCCNC(=N)N)C(=O)N[C@@H](CCCCN)C(=O)N[C@@H](C)C(=O)N[C@@H](CC(=O)O)C(N)=O [SEQ ID NO: 50] ({FITC}-YGRKKRRQRRRGRRRFNSADYKGPRRRKAD-NH2),signal compared to the peptide of SEQ ID NO: 51,[1],2 fold
C[C@H](NC(=O)[C@H](CO)NC(=O)[C@H](CC(N)=O)NC(=O)[C@H](Cc1ccccc1)NC(=O)[C@H](CCCNC(=N)N)NC(=O)[C@H](CCCNC(=N)N)NC(=O)[C@H](CCCNC(=N)N)NC(=O)CNC(=O)[C@H](CC(=O)O)NC(=O)[C@H](CCCNC(=N)N)NC(=O)[C@H](CCCNC(=N)N)NC(=O)[C@H](CCCNC(=N)N)NC(=O)[C@H](CCC(N)=O)NC(=O)[C@H](CCCNC(=N)N)NC(=O)[C@H](CCCNC(=N)N)NC(=O)[C@H](CCCCN)NC(=O)[C@H](CCCCN)NC(=O)[C@H](CCCNC(=N)N)NC(=O)CNC(=O)[C@H](Cc1ccc(O)cc1)NC(=S)Nc1ccc2c(c1)C(=O)OC21c2ccc(O)cc2Oc2cc(O)ccc21)C(=O)N[C@@H](CC(=O)O)C(=O)N[C@@H](Cc1ccc(O)cc1)C(=O)N[C@@H](CCCCN)C(=O)NCC(=O)N1CCC[C@H]1C(=O)N[C@@H](CCCNC(=N)N)C(=O)N[C@@H](CCCNC(=N)N)C(=O)N[C@@H](CCCNC(=N)N)C(=O)N[C@@H](CCCCN)C(=O)N[C@@H](C)C(=O)N[C@@H](CC(=O)O)C(N)=O [SEQ ID NO: 51] ({FITC}-YGRKKRRQRRRDGRRRFNSADYKGPRRRKAD-NH2),reduced biofilms,[2],90%
same,effect on bacterial growth,[3],do not show an effect on bacterial growth
same,localization of the peptides (FITC signal),[4],strong FITC signal on the cell membranes
same,Kd,[5],0.2 µM
